Data as given in the supplement of paper PMC4683952.
Structures can show the parent of a compound that is named as a salt. This is one part of the list. Rule as the data show it: active = 2.5 or more and inactive = the rest. Repeats in this data set agree poorly, so a single value says little.

test system: Lgr5 (MarsCy1-Lgr5-EGFP, U2OS); experiment: cell-surface Lgr5 expression (SCi1 fluorescence, background-subtracted) relative to WT control (fold of WT control); higher = more Lgr5 at the plasma membrane; details: U2OS MarsCy1-Lgr5-EGFP stable; treatment time: overnight; library: Prestwick; 20 µM

Row | SMILES | cell-surface Lgr5 expression
1 | CC(C)(C)NC(=O)[C@@H]1C[C@@H]2CCCC[C@@H]2CN1C[C@@H](O)[C@H](Cc1ccccc1)NC(=O)[C@H](CC(N)=O)NC(=O)c1ccc2ccccc2n1 [Saquinavir mesylate] | inactive: 1.57
2 | CCCCN(CCCC)CCC(O)c1cc2c(Cl)cc(Cl)cc2c2cc(C(F)(F)F)ccc12 (configuration not stated) [Halofantrine hydrochloride] | inactive: 0.889
3 | CCOc1cc(CC(=O)N[C@@H](CC(C)C)c2ccccc2N2CCCCC2)ccc1C(=O)O [Repaglinide] | inactive: 1.13
4 | C[C@]12C=CC(=O)C=C1CC[C@H]1[C@@H]3C[C@@H](O)[C@](O)(C(=O)CO)[C@@]3(C)C[C@H](O)[C@@]12F [Triamcinolone] | inactive: 2.44
5 | CC1(C)O[C@@H]2C[C@H]3[C@@H]4CCC5=CC(=O)CC[C@]5(C)[C@@]4(F)[C@@H](O)C[C@]3(C)[C@]2(C(=O)CCl)O1 [Halcinonide] | active: 3.81
6 | C[C@@H](O)[C@H]1C(=O)N2C(C(=O)O)=C(S[C@@H]3CN[C@H](C(=O)N(C)C)C3)[C@H](C)[C@H]12 [Meropenem] | inactive: 1.23
7 | O=C(O)[C@H](O)[C@@H](O)[C@H](O[C@@H]1O[C@H](CO)[C@H](O)[C@H](O)[C@H]1O)[C@H](O)CO [Lactobionic acid] | inactive: 0.361
8 | C[C@@H]1C[C@H]2[C@@H]3C[C@H](F)C4=CC(=O)C=C[C@]4(C)[C@@]3(Cl)[C@@H](O)C[C@]2(C)[C@H]1C(=O)COC(=O)C(C)(C)C [Clocortolone pivalate] | inactive: 2.1
9 | OC(c1cc(C(F)(F)F)nc2c(C(F)(F)F)cccc12)C1CCCCN1 (configuration not stated) [Mefloquine hydrochloride] | inactive: 0.205
10 | CNCCCC12CCC(c3ccccc31)c1ccccc12 [Maprotiline hydrochloride] | inactive: 1.54
11 | CN(C)CCCSC(=N)N [Dimaprit dihydrochloride] | inactive: 1.11
12 | Cc1onc(-c2c(F)cccc2Cl)c1C(=O)N[C@@H]1C(=O)N2[C@@H]1SC(C)(C)[C@@H]2C(=O)O [Flucloxacillin sodium] | inactive: 0.718
13 | COc1c(C)c2c(c(O)c1C/C=C(\C)CCC(=O)O)C(=O)OC2 [Mycophenolic acid] | inactive: 1.1
14 | CC(=O)NC(CC(=O)O)C(=O)O (racemic) [Aspartic acid, N-acetyl (R,S)] | inactive: 1.19
15 | NS(=O)(=O)c1cc(Cl)c(Cl)c(S(N)(=O)=O)c1 [Dichlorphenamide] | inactive: 1.52
16 | CCN1CCCC(OC(=O)C(c2ccccc2)c2ccccc2)C1 (configuration not stated) [Piperidolate hydrochloride] | inactive: 1.28
17 | CC(C)NC[C@H](O)COc1cccc2ccccc12 [(S)-propranolol hydrochloride] | inactive: 1.08
18 | CC(=O)CCCCn1c(=O)c2c(ncn2C)n(C)c1=O [Pentoxifylline] | inactive: 2.43
19 | CN1C(=O)OC(C)(C)C1=O [Trimethadione] | inactive: 1.84
20 | CN(C/C=C/c1ccccc1)Cc1cccc2ccccc12 [Naftifine hydrochloride] | inactive: 1.88
21 | C[C@@H]1CC[C@@]2(OC1)O[C@H]1C[C@H]3[C@@H]4CC[C@H]5C[C@@H](O)CC[C@]5(C)[C@H]4CC(=O)[C@]3(C)[C@H]1[C@@H]2C [Hecogenin] | inactive: 2.04

Compounds listed so far with four or more nitrogen atoms, in the order listed:
Row | SMILES | cell-surface Lgr5 expression
1 | CC(C)(C)NC(=O)[C@@H]1C[C@@H]2CCCC[C@@H]2CN1C[C@@H](O)[C@H](Cc1ccccc1)NC(=O)[C@H](CC(N)=O)NC(=O)c1ccc2ccccc2n1 [Saquinavir mesylate] | inactive: 1.57
18 | CC(=O)CCCCn1c(=O)c2c(ncn2C)n(C)c1=O [Pentoxifylline] | inactive: 2.43

Continuation.

Row | SMILES | cell-surface Lgr5 expression
22 | CC(C)n1c(/C=C/C(O)CC(O)CC(=O)O)c(-c2ccc(F)cc2)c2ccccc21 (configuration not stated) [Fluvastatin sodium salt] | inactive: 1.59
23 | CNC(=O)c1c(I)c(C(=O)NCC(=O)Nc2c(I)c(C(=O)O)c(I)c(C(=O)NCCO)c2I)c(I)c(N(C)C(C)=O)c1I [Ioxaglic acid] | inactive: 1.02
24 | CCCCNc1cc(C(=O)O)cc(S(N)(=O)=O)c1Oc1ccccc1 [Bumetanide] | inactive: 0.733
25 | CC(=O)Oc1ccccc1C(=O)Oc1ccccc1C(=O)O [Acetylsalicylsalicylic acid] | inactive: 1.11
26 | CNC[C@H](O)[C@@H](O)[C@H](O)[C@H](O)CO [Meglumine] | active: 4.6
27 | Nc1ccc(S(=O)(=O)Nc2cnc3ccccc3n2)cc1 [Sulfaquinoxaline sodium salt] | inactive: 1.51
28 | COc1ccc(C[C@H](N)C(=O)N[C@H]2[C@@H](O)[C@H](n3cnc4c(N(C)C)ncnc43)O[C@@H]2CO)cc1 [Puromycin dihydrochloride] | inactive: 0.458
29 | Cc1ccnc(NS(=O)(=O)c2ccc(N)cc2)n1 [Sulfamerazine] | inactive: 1.63
30 | C[C@H]1NC(=O)NC1=O [Methylhydantoin-5-(D)] | inactive: 1.77
31 | N=C(N)NCc1cccc(I)c1 [Iobenguane sulfate] | inactive: 1.78
32 | CC(=O)O[C@H]1C[C@@]2(C)[C@@H](C[C@@H](O)[C@H]3[C@@]4(C)CC[C@@H](O)[C@@H](C)[C@@H]4CC[C@@]32C)/C1=C(\CCC=C(C)C)C(=O)O [Fusidic acid sodium salt] | inactive: 0.614
33 | CN(C)CCn1nnnc1SCC1=C(C(=O)O)N2C(=O)[C@@H](NC(=O)Cc3csc(N)n3)[C@H]2SC1 [Cefotiam hydrochloride] | inactive: 2.34
34 | CC(C)=CCC/C(C)=C/CC/C(C)=C/CC/C(C)=C/CC/C(C)=C/CC/C(C)=C/CC1=C(C)C(=O)c2ccccc2C1=O [Vitamin K2] | inactive: 1.04
35 | CCN(CC)CCOC(=O)c1ccc(N)cc1 [Procaine hydrochloride] | inactive: 1.36
36 | CC[C@H](C)C(=O)O[C@H]1C[C@@H](C)C=C2C=C[C@H](C)[C@H](CC[C@@H]3C[C@@H](O)CC(=O)O3)[C@H]21 [Lovastatin] | inactive: 1.59
37 | Cc1c(C)c2c(c(C)c1O)CCC(C)(C(=O)O)O2 (configuration not stated) [Trolox] | inactive: 1.7
38 | Cc1c(O)c(=O)n(-c2ccccc2)n1C [Antipyrine, 4-hydroxy] | inactive: 1.12
39 | C[C@H]1[C@H](C)CC[C@]2(C(=O)O[C@@H]3O[C@H](CO[C@@H]4O[C@H](CO)[C@@H](O[C@@H]5O[C@H](C)[C@H](O)[C@@H](O)[C@H]5O)[C@H](O)[C@H]4O)[C@@H](O)[C@H](O)[C@H]3O)CC[C@]3(C)C(=CC[C@@H]4[C@@]5(C)C[C@@H](O)[C@H](O)[C@@](C)(CO)[C@@H]5CC[C@]43C)[C@H]12 [Asiaticoside] | inactive: 0.837
40 | CC(C)OC(=O)C(C)(C)Oc1ccc(C(=O)c2ccc(Cl)cc2)cc1 [Fenofibrate] | inactive: 1.38
41 | CN1CCCN=C1/C=C/c1cccc(O)c1 [Oxantel pamoate] | inactive: 1.01
42 | CC(N)CCCC(C)(C)O (configuration not stated) [Heptaminol hydrochloride] | inactive: 1.44

Row | SMILES | cell-surface Lgr5 expression
43 | C[C@@H]1CCC[C@H](C)N1 [(cis-) Nanophine] | inactive: 2.2
44 | CC1(C)S[C@@H]2[C@H](NC(=O)C3(N)CCCCC3)C(=O)N2[C@H]1C(=O)O [Cyclacillin] | inactive: 1.27
45 | CCc1cccc(CC)c1NC(=O)CN(CC(=O)O)CC(=O)O [Etifenin] | active: 4.47
46 | CN/C(=N\CCSCc1nc[nH]c1C)NC#N [Cimetidine] | inactive: 1.24
47 | O=C(O)c1cc(/N=N/c2ccc(S(=O)(=O)Nc3ccccn3)cc2)ccc1O [Sulfasalazine] | inactive: 2.08
48 | Nc1ncnc2c1ncn2C1OC(COP(=O)(O)O)C(O)C1O (configuration not stated) [Adenosine 5'-monophosphate monohydrate] | active: 2.63
49 | CN1CCCN(C(c2ccccc2)c2ccc(Cl)cc2)CC1 (configuration not stated) [Homochlorcyclizine dihydrochloride] | inactive: 2.03
50 | C[C@@H]1C[C@H]2[C@@H]3CCC4=CC(=O)C=C[C@]4(C)[C@@]3(Cl)[C@@H](O)C[C@]2(C)[C@@]1(OC(=O)c1ccco1)C(=O)CCl [Mometasone furoate] | active: 3.88
51 | CCCCc1ccc2[nH]c(NC(=O)OC)nc2c1 [Parbendazole] | inactive: 1.34
52 | CC1(C)S[C@@H]2[C@H](NC(=O)[C@H](N)c3ccccc3)C(=O)N2[C@H]1C(=O)O [Ampicillin trihydrate] | inactive: 1.36
53 | O=c1n(CCCN2CCN(c3cccc(Cl)c3)CC2)nc2ccccn12 [Trazodone hydrochloride] | inactive: 1.43
54 | C/C=C(/C(=C/C)c1ccc(O)cc1)c1ccc(O)cc1 [Dienestrol] | inactive: 2.17
55 | O=C(O)c1ccccc1OP(=O)(O)O [Fosfosal] | inactive: 1.71
56 | COc1ccc2cc([C@H](C)C(=O)O)ccc2c1 [Naproxen] | inactive: 1.44
57 | Nc1cc(N2CCCCC2)nc(N)[n+]1[O-] [Minoxidil] | inactive: 1.17
58 | C=C(C)[C@@H]1CC[C@]2(CO)CC[C@]3(C)[C@H](CC[C@@H]4[C@@]5(C)CC[C@H](O)C(C)(C)[C@@H]5CC[C@]43C)[C@@H]12 [Betulin] | inactive: 0.725
59 | CC(=O)O[C@H]1C(=O)[C@@]2(C)[C@H]([C@H](OC(=O)c3ccccc3)[C@]3(O)C[C@H](OC(=O)[C@H](O)[C@@H](NC(=O)c4ccccc4)c4ccccc4)C(C)=C1C3(C)C)[C@]1(OC(C)=O)CO[C@@H]1C[C@@H]2O [Paclitaxel] | inactive: 1.03
60 | NC(=O)c1cnccn1 [Pyrazinamide] | inactive: 2.23
61 | N/C(=N\C(=O)c1nc(Cl)c(N)nc1N)NCc1ccccc1 [Benzamil hydrochloride] | inactive: 1.88
62 | O=C(CCNNC(=O)c1ccncc1)NCc1ccccc1 [Nialamide] | inactive: 0.911
